Laboratory results: PMC8012910
Results are given in words; binding and its absence hold for the method and conditions named. Binding seen in cells or lysates may run through a third protein. Some binding calls cover weakened binding; strength is not graded here.

Amino acid sequences for entries named in this document (tags omitted).
UniProt O35718: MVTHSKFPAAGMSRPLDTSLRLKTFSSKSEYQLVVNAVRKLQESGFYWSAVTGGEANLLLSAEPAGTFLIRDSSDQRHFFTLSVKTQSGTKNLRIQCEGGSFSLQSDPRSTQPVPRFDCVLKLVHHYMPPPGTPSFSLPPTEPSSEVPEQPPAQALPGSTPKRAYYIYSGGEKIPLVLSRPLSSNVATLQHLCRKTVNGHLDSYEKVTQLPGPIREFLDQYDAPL

Molecular target: SOCS3-Myc (suppressor of cytokine signaling 3, Myc-tagged) (UniProt O35718)
Test: co-IP; IP of SOCS3-Myc from lysates of transfected OP9-DL1 cells (anti-Myc by the methods, 'anti-SOCS3' by the legend) or isotype control, Protein-G agarose, 4°C; Western blot with rabbit anti-TRIM21

B1: E3 ubiquitin ligase TRIM21 (protein, UniProt Q62191 1-470)
chain: MSPSTTSKMSLEKMWEEVTCSICLDPMVEPMSIECGHCFCKECIFEVGKNGGSSCPECRQQFLLRNLRPNRHIANMVENLKQIAQNTKKSTQETHCMKHGEKLHLFCEEDGQALCWVCAQSGKHRDHTRVPIEEAAKVYQEKIHVVLEKLRKGKELAEKMEMDLTMQRTDWKRNIDTQKSRIHAEFALQNSLLAQEEQRQLQRLEKDQREYLRLLGKKEAELAEKNQALQELISELERRIRGSELELLQEVRIILERSGSWNLDTLDIDAPDLTSTCPVPGRKKMLRTCWVHITLDRNTANSWLIISKDRRQVRMGDTHQNVSDNKERFSNYPMVLGAQRFSSGKMYWEVDVTQKEAWDLGVCRDSVQRKGQFSLSPENGFWTIWLWQDSYEAGTSPQTTLHIQVPPCQIGIFVDYEAGVVSFYNITDHGSLIYTFSECVFAGPLRPFFNVGFNYSGGNAAPLKLCPLKM
binding: binds
